Compound in this assay: Nc1ncnc2c1ncn2[C@@H]1O[C@H](COP(=O)(O)OP(=O)(O)OP(=O)(O)O)[C@@H](O)[C@H]1O [adenosine triphosphate]
In words: NP40-soluble protein abundance relative to vehicle (solubility fold change) (ratio); higher = more soluble protein in presence of ATP. An outline of the steps: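 Jurkat crude lysate (Dounce-homogenised) was treated with eight concentrations from 0.1 to 10 mM for 10 min at room temperature, then 3 min at 37 °C. It was solubilised with 0.8% NP40 and benzonase (60 min, 4 °C) and ultracentrifuged, and the supernatant was TMT-labelled for LC-MS/MS. Intensities were vsn-normalised, and the value is the fold change against the NP40-processed vehicle per replicate, from three independent experiments.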

The chains behind the UniProt entries cited, without tags or fusion partners. Where a name states a change or a piece, a line headed by the entry shows the natural chain unless it says otherwise.
UniProt O14979: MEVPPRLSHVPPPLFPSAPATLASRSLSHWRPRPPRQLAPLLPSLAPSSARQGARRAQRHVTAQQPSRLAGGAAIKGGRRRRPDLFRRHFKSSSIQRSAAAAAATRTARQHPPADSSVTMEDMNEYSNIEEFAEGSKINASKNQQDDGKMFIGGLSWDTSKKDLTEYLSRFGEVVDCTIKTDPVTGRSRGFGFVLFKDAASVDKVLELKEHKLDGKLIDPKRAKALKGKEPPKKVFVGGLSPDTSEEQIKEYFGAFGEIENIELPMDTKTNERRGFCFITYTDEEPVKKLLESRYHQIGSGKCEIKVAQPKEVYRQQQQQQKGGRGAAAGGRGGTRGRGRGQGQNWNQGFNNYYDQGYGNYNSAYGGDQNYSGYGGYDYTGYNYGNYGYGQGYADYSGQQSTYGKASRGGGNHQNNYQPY
UniProt Q9H4L4: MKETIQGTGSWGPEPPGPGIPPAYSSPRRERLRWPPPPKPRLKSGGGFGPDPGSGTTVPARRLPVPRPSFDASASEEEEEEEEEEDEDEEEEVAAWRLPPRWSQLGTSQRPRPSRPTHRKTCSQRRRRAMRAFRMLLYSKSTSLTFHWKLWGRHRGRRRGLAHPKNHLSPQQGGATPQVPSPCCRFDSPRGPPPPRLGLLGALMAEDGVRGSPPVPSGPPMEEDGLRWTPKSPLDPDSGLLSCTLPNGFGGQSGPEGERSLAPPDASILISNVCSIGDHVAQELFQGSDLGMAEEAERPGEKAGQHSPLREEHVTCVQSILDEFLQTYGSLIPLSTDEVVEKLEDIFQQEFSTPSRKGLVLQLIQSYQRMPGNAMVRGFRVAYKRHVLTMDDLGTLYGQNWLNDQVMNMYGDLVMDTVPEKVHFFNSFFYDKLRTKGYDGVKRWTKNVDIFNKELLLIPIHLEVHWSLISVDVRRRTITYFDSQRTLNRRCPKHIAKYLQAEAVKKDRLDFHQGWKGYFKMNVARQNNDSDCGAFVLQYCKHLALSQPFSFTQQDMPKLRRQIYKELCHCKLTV
UniProt Q9P0P8: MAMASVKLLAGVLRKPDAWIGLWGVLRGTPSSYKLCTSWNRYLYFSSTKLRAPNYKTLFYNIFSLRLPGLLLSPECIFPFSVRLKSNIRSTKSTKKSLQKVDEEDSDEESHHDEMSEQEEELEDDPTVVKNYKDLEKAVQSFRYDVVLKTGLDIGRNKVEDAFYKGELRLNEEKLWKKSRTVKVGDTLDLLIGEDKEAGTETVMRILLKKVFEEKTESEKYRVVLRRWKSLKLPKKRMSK
UniProt P47974: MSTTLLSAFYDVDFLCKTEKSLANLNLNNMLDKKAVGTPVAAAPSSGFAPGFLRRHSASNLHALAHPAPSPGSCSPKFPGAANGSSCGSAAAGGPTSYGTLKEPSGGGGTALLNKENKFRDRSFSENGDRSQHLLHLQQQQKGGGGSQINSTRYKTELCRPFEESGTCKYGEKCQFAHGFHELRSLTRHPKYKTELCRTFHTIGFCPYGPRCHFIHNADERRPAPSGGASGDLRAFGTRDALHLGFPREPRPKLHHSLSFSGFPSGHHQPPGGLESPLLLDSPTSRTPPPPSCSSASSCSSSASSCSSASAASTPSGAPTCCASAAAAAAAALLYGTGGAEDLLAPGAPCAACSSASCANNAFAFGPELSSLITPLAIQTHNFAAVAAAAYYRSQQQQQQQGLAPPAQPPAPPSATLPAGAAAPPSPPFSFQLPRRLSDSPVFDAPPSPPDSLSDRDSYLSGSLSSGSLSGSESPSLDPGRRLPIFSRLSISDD
UniProt P01850: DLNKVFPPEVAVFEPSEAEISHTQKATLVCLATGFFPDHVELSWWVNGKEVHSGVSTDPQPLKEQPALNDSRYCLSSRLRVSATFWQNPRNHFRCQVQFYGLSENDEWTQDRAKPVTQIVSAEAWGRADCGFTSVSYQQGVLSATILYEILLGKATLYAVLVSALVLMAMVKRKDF

± gives the standard deviation of the averaged measurements. The list shows a part of the results, in another mix than the full data.

For the target A0A087WUK2|O14979-3 (UniProt O14979), the NP40-soluble protein abundance runs as follows: (concentration: 1mM) 1.01 ± 0.022; (concentration: 2mM) 1 ± 0.035; (concentration: 4mM) 0.998 ± 0.051; (concentration: 6mM) 1.05 ± 0.085; (concentration: 8mM) 1.04 ± 0.056; (concentration: 10mM) 1.03 ± 0.061.
As for A0A087X0R7|Q9H4L4 (UniProt Q9H4L4), the NP40-soluble protein abundance by setting is: (concentration: 1mM) 0.949 ± 0.044; (concentration: 2mM) 0.928 ± 0.02; (concentration: 4mM) 0.922 ± 0.051; (concentration: 6mM) 0.929 ± 0.21; (concentration: 8mM) 0.987 ± 0.084; (concentration: 10mM) 1.03 ± 0.085.
Turning to A0A0D9SEI0|Q9P0P8 (UniProt Q9P0P8), the NP40-soluble protein abundance came out at 0.889 ± 0.041 (concentration: 1mM); 0.96 ± 0.068 (concentration: 2mM); 0.955 ± 0.11 (concentration: 4mM); 0.965 ± 0.03 (concentration: 6mM); 0.97 ± 0.12 (concentration: 8mM); 0.974 ± 0.07 (concentration: 10mM).
For the target A0A087WUU9|P47974 (UniProt P47974), the NP40-soluble protein abundance is, setting by setting: (concentration: 1mM) 1.05 ± 0.1; (concentration: 2mM) 1.02 ± 0.09; (concentration: 4mM) 1.07 ± 0.08; (concentration: 6mM) 1.04 ± 0.044; (concentration: 8mM) 0.968 ± 0.054; (concentration: 10mM) 0.984 ± 0.063.
“A0A075B7B5|A2RUF3 and related entries (UniProt O75044)”: the NP40-soluble protein abundance (concentration: 1mM) was 1.03 ± 0.019; the NP40-soluble protein abundance (concentration: 2mM) worked out at 1.04 ± 0.021; the NP40-soluble protein abundance (concentration: 4mM) was determined as 1.05 ± 0.04; the NP40-soluble protein abundance (concentration: 6mM) worked out at 1.05 ± 0.028; the NP40-soluble protein abundance (concentration: 8mM) turned out to be 1.032 ± 0.0069; the NP40-soluble protein abundance (concentration: 10mM) was found to be 1.04 ± 0.011.
Turning to A0A087WZV8|A0A0G2JN66 (UniProt P01850), the NP40-soluble protein abundance runs as follows: (concentration: 1mM) 0.987 ± 0.081; (concentration: 2mM) 0.99 ± 0.043; (concentration: 4mM) 0.956 ± 0.045; (concentration: 6mM) 0.941 ± 0.047; (concentration: 8mM) 0.944 ± 0.041; (concentration: 10mM) 0.973 ± 0.044.
